The results in this text go back to article doi:10.1101/2024.08.17.24311658.

No constants are given. Whether binding was seen depends on the method and setting. Binding seen in cells or lysates may run through a third protein. Some results given as binding are weak or reduced against the parent protein; the word gives no strength. Tags and fused reporters may be left off the sequences shown.

This experiment has as its target T1, mCherry-SNX17 (UniProt Q15036).
T1 sequence: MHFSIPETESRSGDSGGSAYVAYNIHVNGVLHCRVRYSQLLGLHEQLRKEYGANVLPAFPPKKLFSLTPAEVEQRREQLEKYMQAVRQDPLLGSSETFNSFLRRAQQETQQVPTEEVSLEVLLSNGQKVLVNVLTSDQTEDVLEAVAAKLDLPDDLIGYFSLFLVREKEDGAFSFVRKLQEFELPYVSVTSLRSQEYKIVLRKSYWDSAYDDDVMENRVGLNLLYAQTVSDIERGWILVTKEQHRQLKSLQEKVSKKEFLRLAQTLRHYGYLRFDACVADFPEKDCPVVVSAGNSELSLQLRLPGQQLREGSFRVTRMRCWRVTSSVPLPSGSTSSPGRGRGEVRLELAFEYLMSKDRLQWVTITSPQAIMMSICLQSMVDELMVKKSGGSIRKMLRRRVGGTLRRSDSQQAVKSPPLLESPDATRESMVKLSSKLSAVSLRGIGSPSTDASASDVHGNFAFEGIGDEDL
Briefly: co-IP.

B1: chimeric protein of the cytoplasmic tail of Human-SLITRK3 (domain or fragment, UniProt O94933 676-977)
chain: AYVLRRRRKKLPFRSKRQEGVDLTGIQMQCHRLFEDGGGGGGGSGGGGRPTLSSPEKAPPVGHVYEYIPHPVTQMCNNPIYKPREEEEVAVSSAQEAGSAERGGPGTQPPGMGEALLGSEQFAETPKENHSNYRTLLEKEKEWALAVSSSQLNTIVTVNHHHPHHPAVGGVSGVVGGTGGDLAGFRHHEKNGGVVLFPPGGGCGSGSMLLDRERPQPAPCTVGFVDCLYGTVPKLKELHVHPPGMQYPDLQQDARLKETLLFSAGKGFTDHQTQKSDYLELRAKLQTKPDYLEVLEKTTYRF
Take B1: the binding result is reported as “binds”.

B2: NPIA mutant of the Human-SLITRK3 cytoplasmic tail chimera (domain or fragment, UniProt O94933 676-977)
chain: AYVLRRRRKKLPFRSKRQEGVDLTGIQMQCHRLFEDGGGGGGGSGGGGRPTLSSPEKAPPVGHVYEYIPHPVTQMCNNPIAKPREEEEVAVSSAQEAGSAERGGPGTQPPGMGEALLGSEQFAETPKENHSNYRTLLEKEKEWALAVSSSQLNTIVTVNHHHPHHPAVGGVSGVVGGTGGDLAGFRHHEKNGGVVLFPPGGGCGSGSMLLDRERPQPAPCTVGFVDCLYGTVPKLKELHVHPPGMQYPDLQQDARLKETLLFSAGKGFTDHQTQKSDYLELRAKLQTKPDYLEVLEKTTYRF
Consider B2, for which the binding result is reported as “no binding”.
On to YYTKLQGKSLFGFSGSHSYSPITVESDFSNPLYEAGDTREYEVSI (domain or fragment, UniProt Q6UXD5 866-910) [GFP-tagged wild-type cytoplasmic tail domain of Human-SEZ6L2], for which the binding entry is recorded as “binds”.
Under YYTKLQGKSLFGFSGSHSYSPITVESDFSNPLAEAGDTREYEVSI (domain or fragment, UniProt Q6UXD5 866-910) [ΦxNPxA mutant of the GFP-tagged cytoplasmic tail domain of Human-SEZ6L2] stands “no binding”; under YFSRLQGKSSLQLPRPRPRPYNRITIESAFDNPTYETGSLSFAGDERI (domain or fragment, UniProt Q53EL9 947-994) [GFP-tagged wild-type cytoplasmic tail domain of Human-SEZ6], “binds”.
For YFSRLQGKSSLQLPRPRPRPYNRITIESAFDNPTAETGSLSFAGDERI (domain or fragment, UniProt Q53EL9 947-994) [ΦxNPxA mutant of the GFP-tagged cytoplasmic tail domain of Human-SEZ6], the binding entry is given as “no binding”.

B3: chimeric protein of the cytoplasmic tail of Human-SLITRK5 (domain or fragment, UniProt O94991 686-958)
chain: VLVMKRRKKNQSDHTSTNNSDVSSFNMQYSVYGGGGGTGGHPHAHVHHRGPALPKVKTPAGHVYEYIPHPLGHMCKNPIYRSREGNSVEDYKDLHELKVTYSSNHHLQQQQQPPPPPQQPQQQPPPQLQLQPGEEERRESHHLRSPAYSVSTIEPREDLLSPVQDADRFYRGILEPDKHCSTTPAGNSLPEYPKFPCSPAAYTFSPNYDLRRPHQYLHPGAGDSRLREPVLYSPPSAVFVEPNRNEYLELKAKLNVEPDYLEVLEKQTTFSQF
Turning to B3, the binding result was “binds”.

B4: NPIA mutant of the Human-SLITRK5 cytoplasmic tail chimera (domain or fragment, UniProt O94991 686-958)
chain: VLVMKRRKKNQSDHTSTNNSDVSSFNMQYSVYGGGGGTGGHPHAHVHHRGPALPKVKTPAGHVYEYIPHPLGHMCKNPIARSREGNSVEDYKDLHELKVTYSSNHHLQQQQQPPPPPQQPQQQPPPQLQLQPGEEERRESHHLRSPAYSVSTIEPREDLLSPVQDADRFYRGILEPDKHCSTTPAGNSLPEYPKFPCSPAAYTFSPNYDLRRPHQYLHPGAGDSRLREPVLYSPPSAVFVEPNRNEYLELKAKLNVEPDYLEVLEKQTTFSQF
For B4, the binding entry is “no binding”.

B5: chimeric protein of the cytoplasmic tail of Human-SLITRK2 (domain or fragment, UniProt Q9H156 643-845)
chain: VLKRRKGVPSVPRNTNNLDVSSFQLQYGSYNTETHDKTDGHVYNYIPPPVGQMCQNPIYMQKEGDPVAYYRNLQEFSYSNLEEKKEEPATPAYTISATELLEKQATPREPELLYQNIAERVKELPSAGLVHYNFCTLPKRQFAPSYESRRQNQDRINKTVLYGTPRKCFVGQSKPNHPLLQAKPQSEPDYLEVLEKQTAISQL
Take B5: the binding result is on record as “binds”.

B6: NPIA mutant of the Human-SLITRK2 cytoplasmic tail chimera (domain or fragment, UniProt Q9H156 643-845)
chain: VLKRRKGVPSVPRNTNNLDVSSFQLQYGSYNTETHDKTDGHVYNYIPPPVGQMCQNPIAMQKEGDPVAYYRNLQEFSYSNLEEKKEEPATPAYTISATELLEKQATPREPELLYQNIAERVKELPSAGLVHYNFCTLPKRQFAPSYESRRQNQDRINKTVLYGTPRKCFVGQSKPNHPLLQAKPQSEPDYLEVLEKQTAISQL
Turning to B6, the binding entry was “no binding”.
On to TRCRYYSNLRLPLMYSHPYSQITVETEFDNPIYETGETREYEVSI (domain or fragment, UniProt Q9BYH1 980-1024) [GFP-tagged wild-type cytoplasmic tail domain of Human-SEZ6L], for which the binding entry is “binds”.
TRCRYYSNLRLPLMYSHPYSQITVETEFDNPIAETGETREYEVSI (domain or fragment, UniProt Q9BYH1 980-1024) [ΦxNPxA mutant of the GFP-tagged cytoplasmic tail domain of Human-SEZ6L]: the binding entry is reported as “no binding”.
